Source: PubChem BioAssay AID652259 (Drosophila RNAi Screening Center, 2013)
The deposit covers about 22,000 reagents; this is a random part of those with a known target gene and a result. In the full data, 233 (1.1%) got an active call. 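Light values are raw, unnormalised plate reads; the ratio scores behind the reporter calls were not deposited.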 A plus sign joins genes that one reagent is predicted to hit. Reagent sequences are not shown. Not stated in the record: the amount of reagent, the time to read-out, the dose of the treatment.

- Assay: 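Genome-wide hunt for genes that control Wingless pathway activity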 (primary screen)
- Cells: Drosophila clone 8 imaginal disc epithelial cells
- Reagent: long dsRNA against Drosophila genes
- Conditions: pathway stimulated by co-transfected Wingless expression plasmid
- Detection: 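Firefly luciferase from a tcf-site Wingless reporter, measured alongside co-transfected Renilla luciferase that tracks transfection; pathway stimulated by a Wingless plasmid; the firefly-to-Renilla ratio is not deposited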
- Scale: firefly reporter light: higher = more Wg reporter light, before normalisation; Renilla control light: higher = more transfected or surviving cells
- Call rule: 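Strong candidates differ from their plate mean by at least two out of four per-plate statistical tests; weak candidates meet just one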
- Meaning of the calls: active = candidate regulator (raises or lowers reporter); inactive = not a candidate

{"Gene":"Or47a (GeneID 36187)","amplicon":"DRSC07491","firefly reporter light, replicate 1":5105,"Renilla control light, replicate 1":1755,"Call":"inactive"}
{"Gene":"Bap55 (GeneID 36956)","amplicon":"DRSC07000","reporter change call, replicate 1":"Wg reporter activity raised","firefly reporter light, replicate 1":40768,"Renilla control light, replicate 1":4133,"Call":"active"}
{"Gene":"CG2641 (GeneID 40921)","amplicon":"DRSC15441","firefly reporter light, replicate 1":11074,"Renilla control light, replicate 1":2296,"Call":"inactive"}
{"Gene":"FMRFaR (GeneID 38357)","amplicon":"DRSC08555","firefly reporter light, replicate 1":5755,"Renilla control light, replicate 1":2633,"Call":"inactive"}
{"Gene":"didum (GeneID 35680)","amplicon":"DRSC07603","firefly reporter light, replicate 1":1859,"firefly reporter light, replicate 2":6788,"Renilla control light, replicate 1":576,"Renilla control light, replicate 2":2163,"Call":"inactive"}
{"Gene":"CG5966 (GeneID 31532)","amplicon":"DRSC18394","firefly reporter light, replicate 1":2696,"firefly reporter light, replicate 2":7883,"Renilla control light, replicate 1":826,"Renilla control light, replicate 2":2268,"Call":"inactive"}
{"Gene":"CG42534 (GeneID 43298)","amplicon":"DRSC14722","firefly reporter light, replicate 1":3713,"Renilla control light, replicate 1":919,"Call":"inactive"}
{"Gene":"CG42534 (GeneID 43298)","amplicon":"DRSC14759","firefly reporter light, replicate 1":5003,"Renilla control light, replicate 1":1133,"Call":"inactive"}
{"Gene":"CG42534 (GeneID 43298)","amplicon":"DRSC16072","firefly reporter light, replicate 1":6855,"Renilla control light, replicate 1":2682,"Call":"inactive"}
{"Gene":"Fst (GeneID 41169)","amplicon":"DRSC16491","firefly reporter light, replicate 1":8404,"Renilla control light, replicate 1":3137,"Call":"inactive"}
{"Gene":"Unc-115b + p24-2","amplicon":"DRSC16492","firefly reporter light, replicate 1":5336,"Renilla control light, replicate 1":2464,"Call":"inactive"}
{"Gene":"Lcp65Ab2 + Lcp65Ab1","amplicon":"DRSC10340","firefly reporter light, replicate 1":1409,"firefly reporter light, replicate 2":9398,"Renilla control light, replicate 1":1113,"Renilla control light, replicate 2":3299,"Call":"inactive"}
{"Gene":"Lcp65Ab2 + Lcp65Ab1","amplicon":"DRSC10343","firefly reporter light, replicate 1":1280,"firefly reporter light, replicate 2":10742,"Renilla control light, replicate 1":907,"Renilla control light, replicate 2":3168,"Call":"inactive"}
{"Gene":"RpL41 (GeneID 251466)","amplicon":"DRSC22958","firefly reporter light, replicate 1":5.89e5,"firefly reporter light, replicate 2":6.56e5,"Renilla control light, replicate 1":2.76e5,"Renilla control light, replicate 2":80877,"Call":"inactive"}
{"Gene":"CG33695 + cana","amplicon":"DRSC01163","firefly reporter light, replicate 1":20672,"Renilla control light, replicate 1":8384,"Call":"inactive"}
{"Gene":"CG33695 + cana","amplicon":"DRSC03503","firefly reporter light, replicate 1":2176,"firefly reporter light, replicate 2":6786,"Renilla control light, replicate 1":828,"Renilla control light, replicate 2":2092,"Call":"inactive"}
{"Gene":"CG14000 (GeneID 33820)","amplicon":"DRSC02332","firefly reporter light, replicate 1":1720,"firefly reporter light, replicate 2":5411,"Renilla control light, replicate 1":644,"Renilla control light, replicate 2":1222,"Call":"inactive"}
{"Gene":"CG3502 + CG9863","amplicon":"DRSC04578","firefly reporter light, replicate 1":2008,"firefly reporter light, replicate 2":5830,"Renilla control light, replicate 1":337,"Renilla control light, replicate 2":1138,"Call":"inactive"}
{"Gene":"CG32192 (GeneID 317904)","amplicon":"DRSC21760","firefly reporter light, replicate 1":2.96e5,"firefly reporter light, replicate 2":2.91e5,"Renilla control light, replicate 1":1.45e5,"Renilla control light, replicate 2":91706,"Call":"inactive"}
{"Gene":"Arfrp1 (GeneID 31841)","amplicon":"DRSC18417","firefly reporter light, replicate 1":3161,"firefly reporter light, replicate 2":6580,"Renilla control light, replicate 1":731,"Renilla control light, replicate 2":1652,"Call":"inactive"}
{"Gene":"Blos3 (GeneID 5740347)","amplicon":"DRSC09573","firefly reporter light, replicate 1":4832,"Renilla control light, replicate 1":1669,"Call":"inactive"}
{"Gene":"awd (GeneID 43739)","amplicon":"DRSC16906","firefly reporter light, replicate 1":23649,"Renilla control light, replicate 1":14481,"Call":"inactive"}
{"Gene":"CG34451 (GeneID 5740612)","amplicon":"DRSC09388","firefly reporter light, replicate 1":3552,"Renilla control light, replicate 1":1236,"Call":"inactive"}
{"Gene":"CG34451 (GeneID 5740612)","amplicon":"DRSC09389","firefly reporter light, replicate 1":3158,"Renilla control light, replicate 1":1604,"Call":"inactive"}
{"Gene":"Zw (GeneID 32974)","amplicon":"DRSC20303","firefly reporter light, replicate 1":1892,"firefly reporter light, replicate 2":6496,"Renilla control light, replicate 1":869,"Renilla control light, replicate 2":2265,"Call":"inactive"}
{"Gene":"Snm1 (GeneID 40669)","amplicon":"DRSC12130","firefly reporter light, replicate 1":8294,"Renilla control light, replicate 1":2256,"Call":"inactive"}
{"Gene":"RNaseP:RNA (GeneID 3772418)","amplicon":"DRSC22967","firefly reporter light, replicate 1":5.09e5,"firefly reporter light, replicate 2":6.45e5,"Renilla control light, replicate 1":2.63e5,"Renilla control light, replicate 2":2.63e5,"Call":"inactive"}
{"Gene":"Nedd8 (GeneID 35151)","amplicon":"DRSC02092","firefly reporter light, replicate 1":2433,"firefly reporter light, replicate 2":5047,"Renilla control light, replicate 1":723,"Renilla control light, replicate 2":2800,"Call":"inactive"}
{"Gene":"tw (GeneID 31024)","amplicon":"DRSC18537","firefly reporter light, replicate 1":1593,"firefly reporter light, replicate 2":3446,"Renilla control light, replicate 1":695,"Renilla control light, replicate 2":1269,"Call":"inactive"}
{"Gene":"sty (GeneID 38424)","amplicon":"DRSC08737","firefly reporter light, replicate 1":11217,"Renilla control light, replicate 1":5008,"Call":"inactive"}
{"Gene":"nsr (GeneID 37577)","amplicon":"DRSC04427","firefly reporter light, replicate 1":19618,"Renilla control light, replicate 1":6059,"Call":"inactive"}
{"Gene":"nsr (GeneID 37577)","amplicon":"DRSC22806","firefly reporter light, replicate 1":5.57e5,"firefly reporter light, replicate 2":6.10e5,"Renilla control light, replicate 1":2.05e5,"Renilla control light, replicate 2":2.55e5,"Call":"inactive"}

5 consecutive records from above, for reference:
{"Gene":"Bap55 (GeneID 36956)","amplicon":"DRSC07000","reporter change call, replicate 1":"Wg reporter activity raised","firefly reporter light, replicate 1":40768,"Renilla control light, replicate 1":4133,"Call":"active"}
{"Gene":"CG2641 (GeneID 40921)","amplicon":"DRSC15441","firefly reporter light, replicate 1":11074,"Renilla control light, replicate 1":2296,"Call":"inactive"}
{"Gene":"FMRFaR (GeneID 38357)","amplicon":"DRSC08555","firefly reporter light, replicate 1":5755,"Renilla control light, replicate 1":2633,"Call":"inactive"}
{"Gene":"didum (GeneID 35680)","amplicon":"DRSC07603","firefly reporter light, replicate 1":1859,"firefly reporter light, replicate 2":6788,"Renilla control light, replicate 1":576,"Renilla control light, replicate 2":2163,"Call":"inactive"}
{"Gene":"CG5966 (GeneID 31532)","amplicon":"DRSC18394","firefly reporter light, replicate 1":2696,"firefly reporter light, replicate 2":7883,"Renilla control light, replicate 1":826,"Renilla control light, replicate 2":2268,"Call":"inactive"}
